Data taken from patent publication US9163063B2, “Peptides and nanoparticles for therapeutic and diagnostic applications” (Trustees of Dartmouth College, priority 2009, dated 2015).
Part of at least one peptide drawing is inferred or uncertain, most often the ends. Peptide text beside a SMILES is read from it. * marks the point of attachment. Myristoyl = CCCCCCCCCCCCCC(=O)*

System: MIAPaCa2 pancreatic cancer cells
Experiment: Subcutaneous MIAPaCa2 tumor, intratumoral peptide for 27 days
Assay type: in vivo, nude mice
Conditions: for tumor size / growth versus control group: 27 days of treatment, p=0.01 Mann-Whitney; for proliferation marker Ki67 in tumor tissue versus control: treated n=6, control n=7
Method: When the tumor reached about 5 mm-15 mm in diameter after subcutaneous transplantation of MIAPaCa2 cells (n=10 treatment, n=10 control) into the mouse right flank, mice were treated with 10 mM of peptide for 27 days dissolved in DMSO. The peptide was applied directly into the tumor. The control group was treated with phosphate buffered saline solution alone.
HE staining and immunostaining for Ki67 (n=6 treatment, n=7 control) was performed as described by the manufacturer. For evaluation the Zeiss Axioplan 2 microscope was used. Photos are made with Zeiss Axiocam. For photos 40× objectives were used. Statistical Analysis. Data are presented as means and differences in means with 95% confidence intervals for the differences. Tests for statistical differences were performed using t-tests and Mann-Whitney tests and Wilcoxon tests. For the in vivo experiments, at least 10 mice were used each group. This number was derived by power analysis to detect a 50% reduction in tumor size, with a beta error of 3%. Because the overall sample size was small and outcome variables could have a non-normal distribution, the non-parametric Mann-Whitney test was used to detect statistical significant differences in each group. P values less than 0.05 were considered to be significant. The significance of the tumor take rates was calculated by using a Wilcoxon-test. Asterixes* in the figures represent statistically significant results (probability p<0.05).
To evaluate the in vivo efficiency of the peptide, 1×10^7 MIAPaCa2 cells were injected into 20 nude mice and injected a total of 10 mM of the peptide daily into the developing tumor. […] After 27 days of treatment, the mice were sacraficed and compared tumor growth between peptide-treated mice (n=10) and the control group (n=10) that received buffered saline solution alone.

Structure (SMILES): CCCCCCCCCCCCCC(=O)N1CCC[C@H]1C(=O)N[C@@H](CO)C(=O)N[C@@H](CCC(N)=O)C(=O)N[C@@H](CO)C(=O)N[C@@H](CO)C(=O)N[C@@H](CO)C(=O)N[C@@H](CCC(=O)O)C(=O)N[C@@H](C)C(=O)O [PSQSSSEA, P-S-Q-S-S-S-E-A] (Myristoyl-PSQSSSEA-OH)
- tumor size / growth versus control group: significantly smaller tumor
- tumor size / growth versus control group (listed as GIPC-PDZ-targeting peptide): block tumor growth significantly
- tumor size / growth versus control group (listed as PDZ-inhibitor): significantly smaller tumor
- IGF-1R protein in tumor tissue (immunoblot of tissue lysates): significant reduction of IGF-1R protein
- proliferation marker Ki67 in tumor tissue versus control: significant
- proliferation marker Ki67 in tumor tissue versus control (listed as PDZ-inhibitor): significantly lower proliferation activity
- average tumor size in the treatment group (treatment day 27, 10 mM peptide intratumoral): 661 mm3
